{
  "source": "patent US5443842A",
  "about": "“Oral formulations of ubidecarenone in form of capsules” (Inverni Della Beffa Farmaceutici S.r.l., priority 1993, dated 1995)",
  "origin": "cited, not measured here",
  "data": [
    {"smiles": "COC1=C(OC)C(=O)C(C/C=C(\\C)CC/C=C(\\C)CC/C=C(\\C)CC/C=C(\\C)CC/C=C(\\C)CC/C=C(\\C)CC/C=C(\\C)CC/C=C(\\C)CC/C=C(\\C)CCC=C(C)C)=C(C)C1=O", "note": "[Ubidecarenone]", "values": [
      {"measurement": "Solubility in water", "result": "practically insoluble in water"}
    ]}
  ]
}
